This assay is described as follows: qHTS Assay to Find Inhibitors of Chronic Active B-Cell Receptor Signaling. The conditions noted are these: ABC-DLBCL IkBa-CBG/CBR reporter, luminescence ratio (green luciferase fused to IkBa over red control in TMD8 lymphoma cells), 4 h. Summed up: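 TMD8 human ABC-DLBCL cells with doxycycline-inducible IκBα–green luciferase fusion and unfused red luciferase, in 0.5% FBS medium; compounds up to 46 uM, 4 h at 37C. Green/red luminescence ratio, filter-overlap corrected, fitted to concentration-response curves.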
In general terms: qHTS replaces the single test concentration by a dilution series.

[1] abbreviates: measured here: CBR red luminescence, cell number.
Setting [2] is: measured here: IkBa-CBG green luminescence.

Some of the results follow. The main result of the screen is listed elsewhere. These columns were measured beside it and carry no call. Most of these compounds were active or inconclusive in the main read-out, so they are no random draw. The note in brackets gives the kind of curve behind each potency; many fits are weak.

In the case of `O=C(Nc1ccc(Cl)cc1)OCc1cc(-c2ccccc2)on1`, the AC50 (usually the midpoint of the concentration-response curve, whichever way the signal moves) under setting [1] was 0.794 µM [rising, partial curve, poor fit].

`O=C1CC(c2ccc(F)cc2)CC2=C1C(c1ccc([N+](=O)[O-])o1)Nc1ccccc1N2` (stereo not given): the AC50 under setting [1] was 10 µM [falling, partial curve, poor fit].

`COc1cc(/C=C/C(=O)c2ccc(O)cc2)ccc1OCC#N`: the AC50 under setting [1] was 20.6 µM [falling, partial curve, poor fit].

As for `Cc1cc(C(=O)COC(=O)CNC(=O)c2ccco2)c(C)n1Cc1ccco1`, the concentration at half-maximal activity (AC50) under setting [1] was 18.4 µM [rising, single point].

Take `O=C(N/N=C/c1cccnc1)c1ccc(NC(=O)c2ccccc2Cl)cc1`: under setting [2], the AC50 is 20 µM [rising, partial curve, poor fit].

As for `c1cncc(CNc2nc(-c3cccnc3)nc3ccccc23)c1`, the AC50 under setting [1] is 5.62 µM [rising, single point].

Take `CCOc1ccccc1N=c1oc2cc(O)ccc2cc1C(=O)NCC1CCCO1` (stereo not given): the AC50 under setting [1] was 0.58 µM [falling, full curve].

As to `O=S(=O)(c1ccccc1)N1CCN=C1SCc1c(F)cccc1Cl`, the concentration at half-maximal activity (AC50) under setting [1] was 5.01 µM [rising, single point].

Take `O=C1C2C3C=CC(CNS(=O)(=O)c4ccccc4)(O3)C2C(=O)N1c1ccc(Cl)cc1` (stereo not given): the AC50 under setting [1] is 18.4 µM [falling, single point].

As to `COc1ccc(CNn2c(-c3cccs3)nc3ccccc3c2=O)cc1OC`, the concentration at half-maximal activity (AC50) under setting [1] was 14.1 µM [falling, single point].

As to `O=C(NCc1ccco1)c1ccc(COc2ccc(Cl)cc2)cc1`, the AC50 under setting [1] was 29.1 µM [rising, single point].

As for `O=C(N/N=C/c1ccc(O)c([N+](=O)[O-])c1)C(O)(c1ccccc1)c1ccccc1`, the AC50 under setting [1] was 10 µM [falling, partial curve].

For the molecule `CCN1C(c2ccc(F)cc2)=CS/C1=C(\C#N)c1nnc2n1-c1ccccc1SC2`, the AC50 under setting [1] is 25.1 µM [falling, single point].

Consider `CCOc1ccc(NS(=O)(=O)c2cc(NC(=O)CCC(=O)c3cccs3)ccc2Cl)cc1`, for which the AC50 under setting [1] was 35.5 µM [falling, single point].

As to `Cc1cc(C(F)(F)F)n2nc(C)c(-c3ccc(Cl)cc3)c2n1`, the half-maximal activity concentration (AC50) reads like this: under setting [1], 1.64 µM [rising, partial curve, poor fit]; under setting [2], 29.1 µM [falling, partial curve, poor fit].

Turning to `C/C(=N\NC(=O)c1ccc(Cl)cc1)c1cccc(NC(=O)C(C)C)c1`, under setting [1], the half-maximal activity concentration (AC50) was 2.51 µM [falling, partial curve, poor fit].

In the case of `Cn1ncc2c(Nc3cccc(Cl)c3)nc(Nc3cccc(Cl)c3)nc21`, the AC50 under setting [1] was 6.31 µM [falling, full curve].

Consider `Cc1cccc(CC2S/C(=N/c3ccccn3)NC2=O)c1` (stereo not given), for which the AC50 under setting [1] was 0.231 µM [rising, full curve, poor fit].

Take `Cc1nnc(SCC(=O)Nc2nc3c(s2)CC(C)CC3)s1` (stereo not given): the AC50 under setting [1] was 23.1 µM [falling, partial curve, poor fit].

In the case of `c1ccc(-n2c(SCc3nc(-c4cccs4)no3)nnc2-c2ccco2)cc1`, the AC50 under setting [1] was 29.1 µM [falling, single point].

Regarding `CC[C@@]12C(=O)N(c3ccccc3)C(=O)N1[C@H](c1cccc(C)c1)[C@@H]1C(=O)N(Cc3ccccc3)C(=O)[C@@H]12`, the AC50 under setting [1] was 11.2 µM [falling, single point].

With `CCCC(C)C(=O)Nc1nc(C)c(-c2csc(Nc3ccc(Cl)cc3)n2)s1` (stereo not given), the AC50 under setting [1] was 3.16 µM [rising, full curve, poor fit].

As to `O=C(O)c1ccccc1C(=O)Nc1ccccc1`, the AC50 under setting [1] was 0.116 µM [rising, full curve, poor fit].

For the molecule `COC(=O)Cn1c(C)c(C#N)c2ccccc21`, under setting [1], the AC50 was 25.9 µM [rising, single point].

Turning to `Oc1ccc(Cl)cc1-c1cc(-c2ccccc2Cl)[nH]n1`, the AC50 under setting [1] was 20.6 µM [rising, partial curve].

Consider `COc1ccc(-c2cc(=O)oc3cc(OCC(=O)Nc4ccccn4)ccc23)cc1`, for which the AC50 under setting [1] is 2.82 µM [rising, full curve, poor fit].

On to `O=C(CCN1CCCCC1)c1ccc2c(c1)OCCO2`, for which the AC50 under setting [1] is 8.91 µM [falling, partial curve, poor fit].

Turning to `COC(=O)C1C(O)CCC2CN3CCc4c([nH]c5ccccc45)C3CC21` (stereo not given), the AC50 under setting [1] is 12.6 µM [falling, partial curve, poor fit].

As to `COc1ccccc1NC(=O)C(=O)NNC(=O)COc1ccc2ccccc2c1`, the AC50 under setting [1] was 7.08 µM [falling, partial curve].

With `Nc1cccc(S(=O)(=O)c2ccc(N)c(N)c2)c1`, the AC50 under setting [1] was 22.4 µM [falling, single point].

On to `O=C(/C=C/Nc1ccc(F)cc1F)c1ccco1`, for which the concentration at half-maximal activity (AC50) under setting [1] is 25.1 µM [falling, single point].

Consider `CCOC(=O)CNC(=O)CN1C(=O)CC(c2ccco2)Sc2ccccc21` (stereo not given), for which the half-maximal activity concentration (AC50) under setting [1] is 1.12 µM [rising, full curve, poor fit].

For the molecule `COc1ccc(N2C(=NC(=O)C3CC3)SC3CS(=O)(=O)CC32)cc1Cl` (stereo not given), the concentration at half-maximal activity (AC50) under setting [1] was 0.708 µM [falling, full curve, poor fit].

As for `CCOC(=O)c1nc(C)[nH]c1C(=O)OCC`, the concentration at half-maximal activity (AC50) under setting [1] was 4.61 µM [rising, full curve, poor fit].

With `COc1ccc(NC2=Nc3cccc4cccc2c34)cc1`, the AC50 under setting [1] is 18.4 µM [falling, partial curve, poor fit].

For `CC(C(=O)NC1CCCC1)N(C(=O)c1ccc(-c2ccccc2)[nH]1)c1ccccc1F` (stereo not given), under setting [1], the AC50 is 10 µM [falling, partial curve].

On to `CCOCCn1c(SC)nc2c1c(=O)[nH]c(=O)n2C`, for which the half-maximal activity concentration (AC50) under setting [1] was 20.6 µM [rising, partial curve].

For `CCOc1ccc2[nH]c3c(N4CCN(c5ccccn5)CC4)ncnc3c2c1`, under setting [1], the half-maximal activity concentration (AC50) was 0.731 µM [falling, full curve, poor fit].

As for `COC(=O)c1ccccc1NC(=O)CSc1nc(O)c(-c2ccccc2)c(=O)[nH]1`, the AC50 under setting [1] is 22.4 µM [falling, partial curve, poor fit].

In the case of `c1ccc(-c2nnc(SCc3nc4ccccc4[nH]3)n2Cc2ccco2)nc1`, under setting [1], the AC50 is 0.708 µM [rising, full curve].

For `CC(=O)c1ccc(OCC(O)CN2C(C)(C)CC(O)CC2(C)C)cc1` (stereo not given), the AC50 under setting [1] was 6.51 µM [falling, single point].

Regarding `O=c1/c(=C\c2cccc(O)c2)sc2nc(-c3ccccc3)c(-c3ccccc3)n12`, under setting [1], the AC50 is 22.4 µM [rising, single point].

As to `COC(=O)Cc1ccc(OCc2ccc(Cl)nc2)cc1`, the AC50 under setting [1] was 2.24 µM [rising, partial curve, poor fit].

Consider `CC(=O)Nc1ccc(S(=O)(=O)Nc2nc3ccc([N+](=O)[O-])cc3s2)cc1`, for which, under setting [1], the AC50 is 2.82 µM [falling, full curve].

Regarding `COc1cc(/C=N/NC(=O)c2ccoc2C)ccc1O`, the AC50 under setting [1] is 23.1 µM [falling, partial curve, poor fit].

`Cc1nonc1NC(=O)CSc1nnc(-c2ccoc2C)n1CC(C)C`: the AC50 under setting [1] is 35.5 µM [falling, single point].

Turning to `COc1ccc(NC2CCCN(C(=O)c3ccc4[nH]c(C)c(C)c4c3)C2)cc1OC` (stereo not given), the AC50 under setting [1] was 3.98 µM [rising, full curve].

As for `Cc1cc(C(=O)Nc2ccc3ccccc3c2)c(C)o1`, under setting [1], the AC50 is 10 µM [falling, partial curve].

On to `CC(=O)N/N=C(/C)c1ccc(NC(=O)c2csc(C)c2C)cc1`, for which the concentration at half-maximal activity (AC50) under setting [1] is 25.1 µM [falling, single point].

In the case of `C[C@]12C(=O)N(c3ccccc3)C(=O)N1[C@H]1c3ccccc3OC[C@@H]1[C@H]2c1ccccc1`, the AC50 under setting [1] was 9.2 µM [falling, partial curve].

As to `O=C(Cc1ccsc1)NNC(=O)c1ccccc1O`, the AC50 under setting [1] was 13 µM [falling, partial curve].

For the molecule `Cc1ccc(C(=O)c2c[nH]c(C(=O)NCc3cccnc3)c2)cc1`, the half-maximal activity concentration (AC50) under setting [1] is 23.1 µM [falling, single point].

Regarding `CCCCOc1ccc(/C=C2/Sc3ccccc3C2=O)cc1`, the AC50 under setting [1] is 13 µM [falling, partial curve].

For the molecule `CCOC(=O)/C(=N/Nc1ccccc1)c1csc(Nc2ccccc2)n1`, the AC50 under setting [1] is 13 µM [falling, single point].

Turning to `COc1cc(C2C(C#N)=C(N)N(N(C)C)C3=C2C(=O)CCC3)cc(OC)c1OC` (stereo not given), the concentration at half-maximal activity (AC50) under setting [1] was 22.4 µM [rising, single point].

For `COc1ccc(-c2c(-c3ccc(OCC(=O)NN)cc3O)n[nH]c2C)cc1`, the concentration at half-maximal activity (AC50) under setting [1] was 11.2 µM [falling, single point].

With `COc1cccc(-c2sc3ccc(OC)cc3c2-c2ccc(OCCN3CCCC3)cc2)c1`, the AC50 under setting [1] is 29.1 µM [falling, single point].

Turning to `CCc1nnc(NC(=O)c2oc3ccc(Br)cc3c2C)s1`, the AC50 under setting [1] was 16.4 µM [rising, partial curve].

With `CC1CCCC(C)N1C(=O)COc1ccc(C(=O)N/N=C/c2ccc(C(=O)O)cc2)cc1` (stereo not given), the concentration at half-maximal activity (AC50) under setting [1] was 10 µM [falling, partial curve].

On to `CC[n+]1c(/C=C2\C=C(C)CC(C)(C)C2)sc2ccccc21`, for which the half-maximal activity concentration (AC50) under setting [1] was 35.5 µM [falling, single point].

As for `O=C(/C=C/c1ccc(F)cc1)NCc1cccs1`, the AC50 under setting [1] is 13 µM [falling, partial curve].

Turning to `O=C(c1ccccc1)c1cnc(-c2ccccc2)s1`, the half-maximal activity concentration (AC50) under setting [1] was 2.82 µM [falling, full curve].

In the case of `CCc1ccc(C(=O)Cn2cnc3cc([N+](=O)[O-])ccc3c2=O)cc1`, the AC50 under setting [1] was 6.31 µM [rising, partial curve, poor fit].

For `CCC1(c2ccc(F)cc2)NC(=O)N(CC(=O)Nc2ccc(C)c(S(=O)(=O)N3CCOCC3)c2)C1=O` (stereo not given), the AC50 under setting [1] was 11.2 µM [falling, single point].

(Values after PubChem BioAssay AID493014 (National Center for Advancing Translational Sciences (NCATS), 2011).)
